Laboratory results reported in patent US5710123A (Centocor, Inc., priority 1995, dated 1998).
Some peptides are written in HELM: one residue between dots, names in brackets for other building blocks, links after the first $.

Assay: general procedure: Boc solid-phase peptide synthesis; 4-methyl benzhydrylamine resin
Details: whole synthesis, scale 0.5 mmol

Substance	crude mass [mg]
PEPTIDE1{C.L.K.K.K.H.A.L.C.Y.[am]}$$$$V2.0	720
PEPTIDE1{C.H.K.L.K.A.A.L.C.Y.[am]}$$$$V2.0	748
PEPTIDE1{C.S.K.K.K.L.A.L.C.Y.[am]}$$$$V2.0	680
